The nature of this test: qHTS Assay for Modulators of Lamin A Splicing. The settings on record: HeLa LMNA splicing GFP/RFP minigene ratio, 48 h. Summed up:
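S3 HeLa cells stably expressing lamin A-EGFP splicing minigene plus DsRed2, 600 cells/well, 48 h compound exposure at 37C. Laser-scanning cytometry; analysed as GFP (500-530 nm)/RFP (575-640 nm) total intensity ratio; 0.5% DMSO vehicle.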
(In general: Quantitative high-throughput screening tests each substance at several concentrations.)

Where [1] appears, read: measured here: GFP splicing reporter channel.
Where [2] appears, read: measured here: RFP viability control channel.

Where “and” joins values, the source holds several entries; their conditions need not be identical. Equal entries are not always repeated. The list shows a part of the results. These are further read-outs of the screen, such as a control signal, another cell line or another target. No call is given for them. Most of these compounds were active or inconclusive in the main read-out, so they are no random draw. Words in brackets tell the shape of the fitted curve; partial curves, single points and poor fits give uncertain potencies.

A word on the AC50: it is the midpoint of the concentration-response curve, whichever way the signal moves. For the compound `COc1cc(-c2nnc(SCc3cc(=O)oc4cc(C)ccc34)o2)cc(OC)c1OC`, the AC50 under setting [1] was 5.62 µM [rising, full curve] and the AC50 under setting [2] was 15.8 µM [rising, partial curve].

As for `CCOc1ccccc1-c1nc(-c2ccc(C)nc2OC)no1`, the AC50 under setting [2] was 11.2 µM [rising, single point].

In the case of `CCC(C)(C)C(=O)O[C@@H]1C[C@H](C)C=C2C=C[C@H](C)[C@@H](CC[C@H]3C[C@@H](O)CC(=O)O3)[C@H]21`, the concentration at half-maximal activity (AC50) runs as follows: under setting [1], 14.1 µM [falling, single point]; under setting [2], 0.000355 µM [rising, full curve, poor fit].

For the compound `O=C(/C=C/c1cccc(Cl)c1)N1CCC(Cc2ccccc2)CC1`, the AC50 is, setting by setting: under setting [1], 25.1 µM [rising, single point]; under setting [2], 25.1 µM [rising, single point].

In the case of `COc1ccc(/C=N/NC(=O)c2ccc(O)cc2)cc1CN1CCCc2ccccc21`, the AC50 under setting [2] is 15.8 µM [rising, single point].

With `CCOC(=O)N(Cc1ccccc1)C(C(=O)O)C(C(=O)O)N(Cc1ccccc1)C(=O)OCC` (stereo not given), the AC50 under setting [2] was 35.5 µM [rising, single point].

Regarding `C#CCn1c(C)cc(C)c(S(=O)(=O)c2ccccc2)c1=O`, the AC50 is 3.55 µM [falling, partial curve] under setting [1] and 3.98 µM [falling, partial curve] under setting [2].

`O=C1CC(N2CCC(c3nc4ccccc4o3)CC2)C(=O)N1c1ccc(Cl)c(C(F)(F)F)c1` (stereo not given): the AC50 by setting is: under setting [1], 35.5 µM [rising, single point]; under setting [2], 20 µM [rising, single point].

As to `O=C(CSC1=NCCN1)Nc1cccc(C(F)(F)F)c1`, the AC50 reads like this: under setting [1], 35.5 µM [falling, single point]; under setting [2], 0.00447 µM [falling, full curve, poor fit].

For `CCOc1ccc(NC(=O)CN2CCC(n3cnc4cc(F)ccc43)CC2)cc1`, under setting [2], the AC50 is 0.0251 µM [rising, full curve, poor fit].

Regarding `O=[N+]([O-])c1ccc2[nH]c(O)c(N=NC(=S)NCC3CCCO3)c2c1` (stereo not given), under setting [1], the AC50 was 0.0141 µM [rising, single point].

`N#Cc1cc2c(=O)n3ccccc3nc2n(CCCn2ccnc2)c1=N`: under setting [2], the AC50 is 8.91 µM [rising, partial curve].

As to `CCOC(=O)Cc1c(C)nc2c(-c3ccccc3OC)c(C)nn2c1C`, the AC50 under setting [1] is 25.1 µM [rising, partial curve, poor fit].

On to `Cc1ccc(NC(=O)c2cc(-c3ccc(C)o3)nc3ccccc23)nc1`, for which, under setting [2], the AC50 is 31.6 µM [rising, single point].

Consider `CCOC(=O)c1cccc(NC(=O)Cn2nc3c(cc2=O)CCCC3)c1`, for which the AC50 under setting [2] is 0.0501 µM [falling, full curve, poor fit].

For the compound `OC(CN1c2ccccc2Sc2ccccc21)Cn1nnc2ccccc21` (stereo not given), the half-maximal activity concentration (AC50) under setting [2] is 12.6 µM [rising, partial curve].

`CCOC(=O)c1c(NC(=O)CSc2nnc3ccccn23)sc2c1CCC2`: the AC50 was 1.12 µM [rising, full curve, poor fit] under setting [1] and 1.58 µM [rising, full curve, poor fit] under setting [2].

Turning to `Cc1c(Cl)cccc1-n1ncc(C(=O)N2CCN(C)CC2)c1C1CCN(C(=O)OC(C)(C)C)CC1`, under setting [2], the AC50 is 6.31 µM [falling, single point].

For the compound `Cc1cccc(C(=O)NNC(=O)c2ccccc2-n2cccc2)c1`, the AC50 under setting [2] was 10 µM [falling, partial curve, poor fit].

Consider `Cn1cc(/C=N\O)nc2c(=O)n(-c3ccccc3)c(=O)nc1-2`, for which the AC50 was 3.16 µM [rising, full curve] under setting [1] and 4.47 µM [rising, full curve, poor fit] under setting [2].

On to `CCOC(=O)c1sc(Nc2cccc(C)c2C)nc1C`, for which the AC50 under setting [1] is 35.5 µM [rising, single point].

`CN(c1nc2nonc2nc1NC1CC1)C1CCOC1` (stereo not given): the AC50 under setting [1] was 14.1 µM [falling, single point].

`Cc1nn(-c2ccccc2)c(N)c1Sc1cccc([N+](=O)[O-])c1`: the AC50 under setting [2] is 31.6 µM [rising, single point].

As for `CCNC(=O)COC(=O)CCC(=O)c1cccs1`, the half-maximal activity concentration (AC50) is, setting by setting: under setting [1], 0.0178 µM [falling, full curve, poor fit]; under setting [2], 0.02 µM [falling, full curve].

Regarding `Cc1cccc(NC(=O)C(C)OC(=O)c2ccccc2NS(=O)(=O)c2cc(C)c(C)c([N+](=O)[O-])c2)c1` (stereo not given), the AC50 is, setting by setting: under setting [1], 17.8 µM [rising, single point]; under setting [2], 35.5 µM [rising, single point].

For `Cc1ccc(/C=N/NC(=O)c2ccccc2OCc2cccc(Br)c2)o1`, the AC50 was 12.6 µM [falling, partial curve] under setting [1] and 12.6 µM [falling, partial curve] under setting [2].

With `CC1=NN(C(=O)c2ccc(Br)cc2)C(O)(c2ccccc2)C1` (stereo not given), the AC50 by setting is: under setting [1], 14.1 µM [rising, partial curve, poor fit]; under setting [2], 11.2 µM [rising, partial curve, poor fit].

With `CCn1c2c(c(=N)c3c1CCC3)CCC2`, the AC50 was 7.94 µM [rising, partial curve] under setting [1] and 14.1 µM [rising, partial curve] under setting [2].

With `CCS(=O)(=O)N1Cc2ccccc2CC1C(=O)Nc1nnc(SCc2c(Cl)cccc2Cl)s1` (stereo not given), under setting [2], the AC50 was 12.6 µM [rising, partial curve].

In the case of `OC[C@H]1O[C@@H](n2cnc3cncnc32)[C@H](O)[C@@H]1O`, the AC50 runs as follows: under setting [1], 2.82 µM [falling, full curve] and 5.62 µM [falling, full curve]; under setting [2], 3.55 µM [falling, full curve] and 7.08 µM [falling, full curve].

In the case of `CCc1nc(SCC(=O)N2c3ccccc3Sc3ccccc32)c2ccccc2n1`, under setting [1], the AC50 is 3.55 µM [rising, partial curve, poor fit].

`Cc1ccc(C)c(N2C(=O)N(Cc3c(F)cccc3Cl)c3ccccc3S2(=O)=O)c1`: the AC50 under setting [2] was 0.00316 µM [falling, full curve].

`COc1ccc(/C=C(\C#N)C(=O)OCC(=O)Nc2ccc(C(C)(C)C)cc2)cc1`: the AC50 under setting [2] is 35.5 µM [rising, single point].

For `Cc1c(Br)c([N+](=O)[O-])nn1CC(=O)Nc1ccc(C(N)=O)cc1`, the AC50 under setting [2] was 1.12 µM [rising, full curve, poor fit].

Consider `CC1Oc2ccccc2C=C1/C=N/NC(=O)c1ccccc1O` (stereo not given), for which the AC50 under setting [2] is 1 µM [rising, partial curve, poor fit].

As for `c1ccc(OCc2noc(CN3CCC(C4CCCCC4)C3)n2)cc1` (stereo not given), the AC50 under setting [2] was 0.0178 µM [falling, full curve, poor fit].

Consider `CCOc1ccc(NC(=O)CCN2CCN(S(=O)(=O)c3cc(Cl)ccc3OC)CC2)cc1`, for which the AC50 under setting [2] is 11.2 µM [rising, partial curve, poor fit].

Take `O=C1C(Cl)=C(Nc2ccccc2)C(=O)c2ccccc21`: the AC50 runs as follows: under setting [1], 35.5 µM [rising, single point]; under setting [2], 11.2 µM [rising, partial curve].

Consider `N#C/C(=C\c1cccs1)c1nc2ccccc2[nH]1`, for which the half-maximal activity concentration (AC50) under setting [2] is 7.94 µM [rising, partial curve].

For the compound `Cc1[nH]c2ccccc2c1/C=N/Nc1nc(Nc2ccccc2)nc(N2CCOCC2)n1`, the half-maximal activity concentration (AC50) by setting is: under setting [1], 6.31 µM [falling, single point]; under setting [2], 3.16 µM [rising, partial curve, poor fit].

As for `CCOC(=O)N1CCN(C(=O)CSCC(=O)Nc2nc(-c3ccc(OC)cc3)cs2)CC1`, under setting [2], the AC50 is 14.1 µM [rising, single point].

As to `NS(=O)(=O)c1cccc(-n2cnnn2)c1`, the concentration at half-maximal activity (AC50) under setting [2] is 0.00447 µM [falling, full curve, poor fit].

In the case of `O=c1cc(N2CCN(c3ccccc3)CC2)[nH]c(=O)n1-c1ccccc1Cl`, the AC50 under setting [1] was 3.98 µM [rising, full curve, poor fit].

With `Cc1ccc(NC(=O)C2CCN(S(=O)(=O)c3cccc4nonc34)CC2)nc1`, the AC50 under setting [2] is 17.8 µM [rising, partial curve, poor fit].

Take `CCCCSc1nc(O)cc(=O)n1CC`: under setting [2], the AC50 was 15.8 µM [rising, single point].

For the compound `COc1ccc(C(=O)NCC(c2ccc(Cl)cc2)N2CCCCC2)cc1` (stereo not given), the AC50 reads like this: under setting [1], 35.5 µM [falling, single point]; under setting [2], 0.224 µM [falling, full curve, poor fit].

For the compound `O=C1N/C(=N/N=C/c2ccc(O)cc2)SC1Cc1ccccc1` (stereo not given), the AC50 under setting [1] is 35.5 µM [rising, single point].

As for `CCN=c1scc(-c2cccs2)n1/N=C/c1cc(OC)ccc1O`, the concentration at half-maximal activity (AC50) was 7.94 µM [rising, partial curve] under setting [1] and 8.91 µM [rising, partial curve] under setting [2].

Take `COc1ccc(CN(C(=O)CSc2nnc(-c3ccc(F)cc3)o2)c2ccc(F)cc2)cc1`: the AC50 under setting [1] is 25.1 µM [rising, single point] and the AC50 under setting [2] was 35.5 µM [rising, single point].

Take `Cc1cc(C)nc(SCC(=O)NC2=NN=C(c3ccc(Br)cc3)CS2)n1`: the AC50 was 15.8 µM [falling, single point] under setting [1] and 22.4 µM [falling, partial curve] under setting [2].

Consider `CCOc1nc(OCC)nc(-n2cc(-c3ccccc3)nn2)n1`, for which the AC50 is 11.2 µM [rising, single point] under setting [1] and 14.1 µM [rising, single point] under setting [2].

With `CCOC(=O)c1ccc(NC(=S)N2CCSC2c2c(F)cc(F)cc2F)cc1` (stereo not given), the AC50 under setting [2] is 20 µM [rising, partial curve, poor fit].

For `Nc1nc(-c2ccc(Cl)cc2)nn1C(=O)c1cccs1`, the AC50 under setting [1] was 0.01 µM [falling, full curve, poor fit].

Regarding `CC(C)CNC(=O)Nc1ccccc1F`, under setting [2], the AC50 is 0.00501 µM [falling, full curve, poor fit].

(Values after PubChem BioAssay AID1487 (National Center for Advancing Translational Sciences (NCATS), 2009).)
